Experimental data: US9856511B2, “Protease deubiquitinating inhibitor screening” (priority 2011, dated 2018)
Values joined by “and” are separate entries in the source; they are usually repeats but may differ in a detail not shown here. Equal entries are not always repeated.

Tested on: MCF7 cells
Assay: Connectivity Map (CMAP) comparison of the b-AP15 gene expression signature
Details: MCF7 cells treated with b-AP15 1 μM for 6 h

SMILES	CMAP Score (similarity to the b-AP15 expression signature)
CC1=C(CO)C(=O)O[C@@H]([C@@H](C)[C@H]2CC[C@H]3[C@@H]4C[C@H]5O[C@]56[C@@H](O)C=CC(=O)[C@]6(C)[C@H]4CC[C@]23C)C1 [Withaferin A]	0.922
CC(C)C[C@H](NC(=O)[C@H](CC(C)C)NC(=O)[C@H](CC(C)C)NC(=O)OCc1ccccc1)B(O)O [MG-262]	1
CCCCC/C=C/C=C1/C(=O)C=C[C@@H]1C/C=C\CCCC(=O)O [15 Δ prostaglandin J2]	0.999 and 0.940
